# From the supplement of paper PMC10689618
# Where a name gives a salt, the structure may show the parent alone. The list shows a part of the results. Single values are uncertain, as repeats are few or missing.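 Primary human fetal astrocytes engulfed labelled rat cortical synaptosomes, measured as a red/green ratio corrected for calcein live-cell signal and scaled to the plate median. Toxicity meant calcein falling over 30%; decreased phagocytosis meant below 70% of median above 5 µM.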
# Key:
# Settings in all cases: 24 h
# [1] = system: Human fetal astrocytes; experiment: loss of total cells relative to no-compound high-control median (toxicity); higher = more toxic (fewer cells)
# [2] = system: Human fetal astrocytes; experiment: synaptosome phagocytosis (pHrodo/calcein intensity ratio) relative to plate median of data wells; higher = more phagocytosis
# [3] = system: Human fetal astrocytes; experiment: loss of total cells relative to no-compound high-control median (toxicity); higher = more toxic (fewer cells); remark: listed apart in the source
# [4] = system: Human fetal astrocytes; experiment: synaptosome phagocytosis (pHrodo/calcein intensity ratio) relative to plate median of data wells; higher = more phagocytosis; remark: listed apart in the source
SMILES,loss of total cells ([1]; 1.39 µM) [%],loss of total cells ([1]; 2.78 µM) [%],loss of total cells ([1]; 5.56 µM) [%],loss of total cells ([1]; 11.11 µM) [%],loss of total cells ([1]; 22.22 µM) [%],synaptosome phagocytosis ([2]; 1.39 µM) [%],synaptosome phagocytosis ([2]; 2.78 µM) [%],synaptosome phagocytosis ([2]; 5.56 µM) [%],synaptosome phagocytosis ([2]; 11.11 µM) [%],synaptosome phagocytosis ([2]; 22.22 µM) [%],loss of total cells ([3]; 1.39 µM) [%],loss of total cells ([3]; 2.78 µM) [%],loss of total cells ([3]; 5.56 µM) [%],loss of total cells ([3]; 11.11 µM) [%],loss of total cells ([3]; 22.22 µM) [%],synaptosome phagocytosis ([4]; 1.39 µM) [%],synaptosome phagocytosis ([4]; 2.78 µM) [%],synaptosome phagocytosis ([4]; 5.56 µM) [%],synaptosome phagocytosis ([4]; 11.11 µM) [%],synaptosome phagocytosis ([4]; 22.22 µM) [%]
CC(C)C[C@H]1C(=O)N2CCC[C@H]2[C@]2(O)O[C@](NC(=O)[C@@H]3C=C4c5cccc6[nH]c(Br)c(c56)C[C@H]4N(C)C3)(C(C)C)C(=O)N12,-1.7,-7.6,6.3,-2.3,10.2,101,114,130,92.8,47.9,,,,,,,,,,
"CC(=O)C1CCC2C3CCC4C[C@H](O)CCC4(C)C3C[C@H](O)C12C (stereo partly drawn) [DIHYDROXY (3alpha,12alpha)PREGNAN-20-ONE]",-6.2,-4.7,35.1,14.2,11.5,86.5,99.5,94.6,112,115,,,,,,,,,,
S=C=NCc1ccccc1,20.6,17.7,-47.1,13.8,-16.7,127,151,0,125,136,,,,,,,,,,
COc1cc2c(cc1OC)[C@H](C)NCC2,-12.3,11.2,24.2,5.4,11.9,90.9,79.9,138,90.9,90.8,,,,,,,,,,
C[C@@H]1O[C@@H](O[C@@H]2C=C3CC[C@@H]4[C@H](CC[C@]5(C)[C@@H](c6ccc(=O)oc6)CC[C@]45O)[C@@]3(C)CC2)[C@H](O)[C@H](O)[C@H]1O,24.1,21,24.3,25.8,49.9,31.8,60,35.6,16.8,49.7,,,,,,,,,,
C[C@@H]1C[C@@H]([C@H](O)CC2CC(=O)NC(=O)C2)C(=O)[C@@H](C)C1,-25.8,-23,-8.7,-5.6,12.1,107,83.6,58.9,57.6,64.3,,,,,,,,,,
CC[C@H]1/C=C/C=C/C[C@@H](C)[C@H](O)[C@@](C)(O)C(=O)[C@@H](C)[C@H](O)[C@@H](C)C(=O)[C@@H](C)[C@H](O)[C@@H](C)/C=C/C(=O)O[C@@H]2[C@H](C)[C@H](CC1)O[C@]1(CC[C@H](C)[C@H](C[C@@H](C)O)O1)[C@H]2C [OLIGOMYCIN (A shown)],6.6,4.7,11,18.9,23.7,68.9,99.9,108,108,75.2,,,,,,,,,,
NCC(=O)c1ccccc1,-23.8,-9.7,-16.8,2.7,14.1,110,114,98.4,104,121,,,,,,,,,,
COc1c2c(cc3c1OCO3)CC[N+](C)=C2,-7.6,3.2,9.4,11.3,-3.8,87.5,112,69.5,102,106,,,,,,,,,,
C=CCN1CC[C@]23c4c5ccc(O)c4O[C@H]2C(=O)CC[C@@]3(O)[C@H]1C5,-29.9,-22.9,-20.1,-13.3,5.7,99.7,108,106,111,123,,,,,,,,,,
Nc1ccc([As](=O)(O)O)cc1,-54,-27,-10.6,23.3,5.9,92.2,74.6,99.6,109,89,,,,,,,,,,
COc1cc2c(cc1-c1cc3cc4ccoc4cc3oc1=O)OCO2,4.7,-3.3,33.6,5.8,6.3,108,57.6,126,104,141,,,,,,,,,,
CC(C)=CCCC1(C)C=Cc2c(O)c3c(c(CC=C(C)C)c2O1)OC12C(CC4CC1C(C)(C)OC2(C/C=C(/C)C(=O)O)C4O)C3=O (stereo not given),33.6,21.3,26.1,20.5,20.5,129,113,89.3,100,81.9,,,,,,,,,,
Cc1ncc(C[n+]2csc(CCO)c2C)c(=O)[nH]1,-1.1,6.1,0,-2.1,-0.8,99.6,86.8,98,137,102,,,,,,,,,,
C[C@H]1C(=O)O[C@@H]2CCN3CC=C(COC(=O)[C@](C)(O)[C@]1(C)O)[C@H]23,-31.1,-7.6,-0.7,11.5,-3.7,86.8,111,85.8,120,128,,,,,,,,,,
CC[C@H]1CN2CCc3cc(OC)c(OC)cc3[C@@H]2C[C@@H]1C[C@H]1NCCc2cc(OC)c(OC)cc21,13.4,-5.8,-0.7,31.4,50.2,53.9,38,19.5,26,54.4,,,,,,,,,,
N#C/C(=C\c1cccc(O)c1)C(=O)O [alpha-CYANO-3-HYDROXYCINNAMIC ACID],18.4,6.1,-3.6,-16.3,17.4,96.6,101,122,136,115,,,,,,,,,,
CC(=O)Nc1cc([As](=O)(O)O)ccc1O,-6.2,-35.6,-22.3,11.8,27.1,120,103,114,108,114,,,,,,,,,,
CC(C)=CCC[C@]1(C)C=Cc2c(O)c3c(c(CC=C(C)C)c2O1)O[C@]12C(=C[C@@H]4C[C@H]1C(C)(C)O[C@@]2(C/C=C(/C)C(=O)O)C4=O)C3=O,-16.3,15.9,63.4,98.7,99.6,38.2,23.2,5.4,0,0,,,,,,,,,,

SMILES,loss of total cells ([1]; 1.39 µM) [%],loss of total cells ([1]; 2.78 µM) [%],loss of total cells ([1]; 5.56 µM) [%],loss of total cells ([1]; 11.11 µM) [%],loss of total cells ([1]; 22.22 µM) [%],synaptosome phagocytosis ([2]; 1.39 µM) [%],synaptosome phagocytosis ([2]; 2.78 µM) [%],synaptosome phagocytosis ([2]; 5.56 µM) [%],synaptosome phagocytosis ([2]; 11.11 µM) [%],synaptosome phagocytosis ([2]; 22.22 µM) [%],loss of total cells ([3]; 1.39 µM) [%],loss of total cells ([3]; 2.78 µM) [%],loss of total cells ([3]; 5.56 µM) [%],loss of total cells ([3]; 11.11 µM) [%],loss of total cells ([3]; 22.22 µM) [%],synaptosome phagocytosis ([4]; 1.39 µM) [%],synaptosome phagocytosis ([4]; 2.78 µM) [%],synaptosome phagocytosis ([4]; 5.56 µM) [%],synaptosome phagocytosis ([4]; 11.11 µM) [%],synaptosome phagocytosis ([4]; 22.22 µM) [%]
C[C@@H](CO)NC(=O)[C@@H]1C=C2c3cccc4[nH]cc(c34)C[C@H]2N(C)C1,-2.1,-14.6,-0.7,-0.9,-11.2,89.6,78.6,94.5,93.7,112,,,,,,,,,,
C[C@H](N)[C@H](O)c1ccc(O)c(O)c1,6.2,-4.4,-7,2,0.3,83.7,89,86.8,96.1,84,,,,,,,,,,
C#C[C@]1(O)CC[C@H]2[C@@H]3CCC4=CC(=O)CC[C@]4(C)[C@H]3CC[C@@]21C,-26.6,36.5,-1.2,44.3,-9,71.7,135,97.5,147,118,,,,,,,,,,
COc1cc2c(c(OC)c1OC)-c1ccc(O)c(=O)cc1[C@@H](N)CC2,1.8,-4,7.2,-10.5,15.2,105,88,102,108,101,,,,,,,,,,
NCC1(CC(=O)O)CCCCC1,-27.9,8.6,28.2,-12.9,14.4,77.5,109,115,85.6,131,,,,,,,,,,
N[C@]1(C(=O)O)CC[C@H](C(=O)O)C1 (racemic) [trans-(±)-ACPD],,,,,,,,,,,-26.1,-8.4,-10.6,6.7,-1.9,92.4,115,93.7,108,111
Cc1ccc(S(=O)(=O)N[C@@H](CCCCN)C(=O)CCl)cc1 [Na-p-Tosyl-L-lysine chloromethyl ketone hydrochloride],,,,,,,,,,,-5.3,-6.9,-5.6,-9.6,-12.3,110,92.9,102,83.6,118
O=C(O)c1cc[c]([Hg][Cl])cc1 [4-Chloromercuribenzoic acid],,,,,,,,,,,-4.4,-10.2,-29,-7.6,4.9,111,116,128,117,107
CCCN1CCC[C@@H]2Cc3n[nH]cc3C[C@H]21 (racemic) [(±)-Quinpirole dihydrochloride],,,,,,,,,,,-15.2,-30.8,-10.7,-21.8,-20.6,83.3,87.8,71.1,103,138
"C[C@]12CC[C@@H](O)C[C@@H]1CC[C@@H]1[C@@H]2CC[C@]2(C)[C@@H](O)CC[C@@H]12 [5alpha-Androstane-3alpha,17beta-diol]",,,,,,,,,,,-4,-5.1,-5.1,11.2,-4.1,93.9,141,142,107,99.8
C[N+]1(C)CCOC(O)(c2ccc(-c3ccc(C4(O)C[N+](C)(C)CCO4)cc3)cc2)C1 (stereo not given) [Hemicholinium-3],,,,,,,,,,,1.3,0.9,9.1,-5.8,4,99.5,88.2,89.3,95.9,99.4
NCC1(CC(=O)O)CCCCC1 [Gabapentin],,,,,,,,,,,8.8,-10.3,4.1,-10.3,-4,117,114,99.3,137,103
Cc1o[nH]c(=O)c1CC(N)C(=O)O (racemic) [(±)-AMPA hydrobromide],,,,,,,,,,,-0.4,-17.9,6.6,-3.1,1.6,114,106,85.1,98.6,103
"CCCN1CCO[C@@H]2c3cc(O)ccc3OC[C@H]21 [S(+)-PD 128,907 hydrochloride]",,,,,,,,,,,-11.5,-30.2,-4.5,-28,-37,101,78.7,112,108,110
S=C=Nc1cccc(C2(N3CCCCC3)CCCCC2)c1 [Metaphit methanesulfonate],,,,,,,,,,,-10.9,0.5,6.1,9.5,33.6,81.1,125,110,124,78.2
CCN(CCCl)Cc1ccccc1Br [DSP-4 hydrochloride],,,,,,,,,,,-24.6,-9.3,-8.8,11.2,-3.4,87.4,83.1,97,116,98.6
"NC1CCc2cc(O)c(O)cc2C1 (stereo not given) [6,7-ADTN hydrobromide]",,,,,,,,,,,6.3,-16.2,4.1,5.8,4.8,115,108,105,102,104
CCOC(=O)c1cncn1[C@H](C)c1ccccc1,-33.9,-35.7,-0.6,16.7,-13.4,114,93.5,90.1,119,96.6,,,,,,,,,,
NCCCP(=O)(O)O [3-Aminopropylphosphonic acid],,,,,,,,,,,-13.6,-4.2,6.9,11.2,0.4,79,81.1,79.8,98.9,77.7

# Only synaptosome phagocytosis ([2]; 11.11 µM) [%] and synaptosome phagocytosis ([4]; 22.22 µM) [%], for some of the entries so far:
SMILES	synaptosome phagocytosis ([2]; 11.11 µM) [%]	synaptosome phagocytosis ([4]; 22.22 µM) [%]
COc1cc2c(cc1OC)[C@H](C)NCC2	90.9	
C[C@@H]1O[C@@H](O[C@@H]2C=C3CC[C@@H]4[C@H](CC[C@]5(C)[C@@H](c6ccc(=O)oc6)CC[C@]45O)[C@@]3(C)CC2)[C@H](O)[C@H](O)[C@H]1O	16.8	
C[C@@H]1C[C@@H]([C@H](O)CC2CC(=O)NC(=O)C2)C(=O)[C@@H](C)C1	57.6	
